For 29 molecules, T/C and survivor count results are on record in PubChem BioAssay AID328 (DTP/NCI, 2004).

The list is a part of this screen's results and no random one: it is rich in T/C values a quarter to a half above the control, in often repeated tests (any T/C) and in doses without a T/C. Further doses and runs are listed elsewhere. T/C gives the treated animals as a percentage of the vehicle group. Some doses have a count of surviving animals in place of a T/C: the source files T/C as zero there, which appears to mark a toxic dose or a test without result, not a measured value. Some survivor counts are full or nearly so, which does not show that the dose was tolerated: survival well below the control is almost never listed, so the zero probably covers shortened survival too. Survivors were counted at the toxicity check, usually on the fifth day, unless a day is given; later deaths do not show. Schedule codes are those of the source, read here as Q, the interval in days (D) or hours (H), X, the number of doses. Some schedules carry Z or #; the key to these is not given. Some doses were run more than once; the values are given in rising order. Where survival is the endpoint, this PubChem deposit counts one and a half times the control or more as active, and values a quarter to a half above the control carry no call in these data; other NCI protocols may use other cut-offs. Some T/C values carry the count of animals alive at the toxicity check (mostly the fifth day); without a count, all were alive then.

This assay has as its system BDF1 mice, P388 leukemia ip, median survival T/C. Nature of the assay: NCI In Vivo Anticancer Drug Screen. Data for tumor model P388 Leukemia (intraperitoneal) in B6D2F1 (BDF1) mice. The note with it: T/C endpoint: median survival time, higher T/C = longer survival. In a few lines: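 Read-out is survival of treated animals expressed relative to the vehicle group, as a T/C ratio.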

[1] abbreviates: dose: 12.5 mg/kg/injection, schedule: Q01DX009 (ip), vehicle: saline with Tween-80.
Where [2] appears, read: dose: 25.0 mg/kg/injection, schedule: Q01DX009 (ip), vehicle: saline with Tween-80.
The mark [3] stands for this setting: dose: 50.0 mg/kg/injection, schedule: Q01DX009 (ip), vehicle: saline with Tween-80.
The mark [4] stands for this setting: dose: 100.0 mg/kg/injection, schedule: Q01DX009 (ip), vehicle: saline with Tween-80.
The mark [5] stands for this setting: dose: 200.0 mg/kg/injection, schedule: Q01DX009 (ip), vehicle: saline with Tween-80.
[6] abbreviates: dose: 400.0 mg/kg/injection, schedule: Q04DX003 (ip), vehicle: saline.
The mark [7] stands for this setting: dose: 100.0 mg/kg/injection, schedule: Q04DX003 (ip), vehicle: saline.
The mark [8] stands for this setting: dose: 50.0 mg/kg/injection, schedule: Q01DX009 (ip), vehicle: saline.
Where [9] appears, read: dose: 100.0 mg/kg/injection, schedule: Q01DX009 (ip), vehicle: saline.
Where [10] appears, read: dose: 200.0 mg/kg/injection, schedule: Q01DX009 (ip), vehicle: saline.
Setting [11] is: dose: 50.0 mg/kg/injection, schedule: Q04DX003 (ip), vehicle: water.
[12] abbreviates: dose: 20.0 mg/kg/injection, schedule: Q01DX009 (ip), vehicle: saline with Tween-80.
Setting [13] is: dose: 200.0 mg/kg/injection, schedule: Q01DX005 (ip), vehicle: saline with Tween-80.

Turning to `CCC[CH2][Sn]1([CH2]CCC)[S]CC[N]1S(=O)(=O)c1ccc(C)cc1`, for the setting “dose: 1.5 mg/kg/injection, schedule: Q01DX009 (ip), vehicle: gum acacia”, the T/C is 141 % of control. Besides, the survivor count runs as follows: (dose: 6.0 mg/kg/injection, schedule: Q01DX009 (ip), vehicle: gum acacia) 6 of 6; (dose: 12.5 mg/kg/injection, schedule: Q01DX009 (ip), vehicle: gum acacia) 0 of 6; (dose: 25.0 mg/kg/injection, schedule: Q01DX009 (ip), vehicle: gum acacia) 0 of 6; (dose: 50.0 mg/kg/injection, schedule: Q01DX009 (ip), vehicle: gum acacia) 0 of 6.

As for `CC[NH-].CC[NH-].[I][Pt+2][I]`, where the note is “dose: 12.5 mg/kg/injection, schedule: Q01DX009 (ip), vehicle: saline”, the T/C is 142 % of control.

In the case of `Nc1ccc(/C=C\c2nccc3ccccc23)cc1`, for the setting “dose: 1.56 mg/kg/injection, schedule: Q01DX009 (ip), vehicle: saline with Tween-80”, the T/C is 125 % of control. The survivor count under setting [1] is reported as 6 of 6; the survivor count under setting [2] is reported as 3 of 6; the survivor count under setting [3] is 0 of 6 and 3 of 6; the survivor count under setting [4] is recorded as 0 of 6; the survivor count under setting [5] was 0 of 6.

For the molecule `Nc1ccc(CCCCc2ccc(Cl)cc2Cl)cc1`, the survivor count is 2 of 6 (dose: 225.0 mg/kg/injection, schedule: Q01DX009 (ip), vehicle: saline); 0 of 6 (dose: 335.0 mg/kg/injection, schedule: Q01DX009 (ip), vehicle: saline); 6 of 6 under setting [6].

Regarding `CCCC(=O)Nc1ccc(NS(C)(=O)=O)cc1OC`, where the note is “dose: 400.0 mg/kg/injection, schedule: Q04DX003 (ip), vehicle: Klucel (hydroxypropylcellulose) (HPC)”, the survivor count is on record as 0 of 6.

As for `Nc1[nH]c(=O)ncc1[N+](=O)[O-]`, under setting [5], the survivor count is on record as 5 of 6.

As to `CCC(O)Cc1c[nH]c(=O)[nH]c1=O` (stereo not drawn), the survivor count under setting [6] is listed as 0 of 6.

Regarding `Cn1c(O)c(C=N)c(=O)n(C)c1=O`, under setting [7], the survivor count was 6 of 6.

Take `CC(=O)[O][Hg][c]1c(C)c(C)cc(C)c1C`: the survivor count reads like this: under setting [8], 1 of 6; under setting [9], 0 of 6.

As for `C=C(C)C12OC3(c4ccccc4)OC1C1C4OC4(CO)C(O)C4(O)C(=O)C(C)=CC4C1(O3)C(C)C2OC(=O)/C=C/c1ccccc1` (stereo not drawn), the survivor count (dose: 400.0 micrograms/kg/injection, schedule: Q## X009 (ip), vehicle: saline + alcohol) is reported as 6 of 6.

As for `CN(C)c1ccc(/C=C/c2nccc3ccccc23)cc1`, the survivor count under setting [1] is recorded as 6 of 6, the survivor count under setting [2] is recorded as 6 of 6 and the survivor count under setting [3] was 0 of 6.

For the molecule `Cc1cc(O)c(C(c2ccc(N(C)C)cc2Cl)c2c(O)cc(C)[nH]c2=O)c(=O)[nH]1`, the survivor count under setting [5] is reported as 4 of 6.

Regarding `CCN(CC)CCCCCCNc1cc(OC)c(F)c2c(C)ccnc12`, the survivor count runs as follows: under setting [8], 0 of 6; under setting [9], 0 of 6; under setting [10], 0 of 6.

Turning to `NC(=O)/C=C/c1c[nH]c2nccnc12`, the T/C runs as follows: (dose: 25.0 mg/kg/injection, schedule: Q01DX009 (ip), vehicle: water) 144 % of control; (dose: 25.0 mg/kg/injection, schedule: Q04DX003 (ip), vehicle: water) 125 % of control; under setting [11], 126 % of control. Moreover, the survivor count was 3 of 6 (dose: 50.0 mg/kg/injection, schedule: Q01DX009 (ip), vehicle: water) and 5 of 6 under setting [11].

Consider `CC[CH2][Pb]([CH2]CC)([CH2]CC)[O]C(=O)C(F)(F)F`, for which the survivor count by setting is: (dose: 9.0 mg/kg/injection, schedule: Q01DX009 (ip), vehicle: Klucel (hydroxypropylcellulose) (HPC)) 6 of 6; (dose: 18.0 mg/kg/injection, schedule: Q01DX009 (ip), vehicle: Klucel (hydroxypropylcellulose) (HPC)) 1 of 6; (dose: 18.0 mg/kg/injection, schedule: Q01DX009 (ip), vehicle: saline with Tween-80) 0 of 6. Moreover, the T/C (dose: 9.0 mg/kg/injection, schedule: Q01DX009 (ip), vehicle: saline with Tween-80) is 130 % of control.

For `OCCNCc1ccc2ccccc2n1`, under setting [6], the survivor count is 1 of 6.

For `NC1(CO)COC(c2ccccc2)OC1` (stereo not drawn), the T/C under setting [7] is 127 % of control. The survivor count reads like this: (dose: 150.0 mg/kg/injection, schedule: Q01DX009 (ip), vehicle: saline) 3 of 6; (dose: 150.0 mg/kg/injection, schedule: Q04DX003 (ip), vehicle: saline) 3 of 6; (dose: 200.0 mg/kg/injection, schedule: Q04DX003 (ip), vehicle: saline) 1 of 6 and 4 of 6.

For the molecule `S=P(N1CCCC1)(N1CC1)N1CC1`, the survivor count was 6 of 6 under setting [12] and 6 of 6 (dose: 40.0 mg/kg/injection, schedule: Q01DX009 (ip), vehicle: saline with Tween-80).

As for `CC1CN1c1cc(O)c(N2CC2C)cc1O` (stereo not drawn), the T/C reads like this: (dose: 0.88 mg/kg/injection, schedule: Q01DX009 (ip), vehicle: saline with Tween-80) 145 % of control [5 of 6 alive]; (dose: 2.2 mg/kg/injection, schedule: Q04DX003 (ip), vehicle: saline with Tween-80) 136 % of control; (dose: 3.3 mg/kg/injection, schedule: Q04DX003 (ip), vehicle: saline with Tween-80) 140 % of control; (dose: 7.5 mg/kg/injection, schedule: Q01DX009 (ip), vehicle: saline with Tween-80) 135 % of control. Moreover, the survivor count under setting [12] is on record as 6 of 6.

In the case of `CC1N/C(=C/c2ccccc2)C(=O)O1` (stereo not drawn), the T/C under setting [2] was 127 % of control. For the same molecule, the survivor count under setting [5] is on record as 3 of 6.

Regarding `CC(=O)N1N=C(N)SC1c1ccc(Cl)c(Cl)c1` (stereo not drawn), the survivor count under setting [5] is 0 of 6.

Turning to `CCCCCCCCCCCCCCCCS(=O)(=O)NN`, the survivor count is 4 of 6 (dose: 100.0 mg/kg/injection, schedule: Q01DX009 (ip), vehicle: other) and 1 of 6 (dose: 200.0 mg/kg/injection, schedule: Q01DX009 (ip), vehicle: other).

For `Cc1cc(NC(=O)Nc2ccc(C3=NCCCN3)cc2)ccc1NC(=O)Nc1ccc(C2=NCCCN2)cc1`, the T/C is, setting by setting: (dose: 19.0 mg/kg/injection, schedule: Q01DX009 (ip), vehicle: saline) 149 % of control; under setting [9], 147 % of control.

With `O=C(CCl)NCc1cnccn1`, the survivor count (dose: 300.0 mg/kg/injection, schedule: Q04DX003 (ip), vehicle: saline) was 1 of 6.

Take `Cc1ccc(NO)c(C)c1`: the survivor count under setting [13] was 1 of 6.

On to `COc1ccc(CC2c3cc(OC)c(OC)cc3CCN2C(=O)c2ccccc2)cc1OC` (stereo not drawn), for which the survivor count under setting [13] is on record as 6 of 6.

As for `CC1(c2cccs2)NC(=O)N(Cl)C1=O` (stereo not drawn), the survivor count under setting [4] is reported as 5 of 6; the survivor count under setting [5] is reported as 3 of 6; the survivor count (dose: 200.0 mg/kg/injection, schedule: Q04DX003 (ip), vehicle: saline with Tween-80) is 4 of 6; the survivor count (dose: 400.0 mg/kg/injection, schedule: Q01DX009 (ip), vehicle: saline with Tween-80) is 0 of 6.

Regarding `C=C/C(C)=C/[C@H](C)C(=O)C[C@H](O)CC1CC(=O)NC(=O)C1`, the T/C (dose: 18.5 mg/kg/injection, schedule: Q01DX009 (ip), vehicle: saline with Tween-80) is 130 % of control and the T/C (dose: 37.0 mg/kg/injection, schedule: Q01DX009 (ip), vehicle: saline with Tween-80) is 147 % of control. For the same molecule, the survivor count (dose: 150.0 mg/kg/injection, schedule: Q01DX009 (ip), vehicle: saline with Tween-80) is recorded as 6 of 6.

As to `CC1CCCCN1CC(Cl)Cl` (stereo not drawn), the survivor count under setting [10] is given as 2 of 5.
